Structures are written as SMILES. Some of the results follow. These are raw signals, not scaled to a control.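 First-pass screen: polymyxin B was added at a level that permeabilizes the Salmonella outer membrane while sparing the inner membrane. DMSO wells, with and without polymyxin B, defined maximum growth. Because plates differed from one another, each plate's data were ranked separately and the compounds with the lowest OD600 were carried forward as hits.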

In the test the test system is Salmonella enterica serovar Typhimurium SL1344. Put plainly: bacterial growth OD600 after 18 h with compound and polymyxin B; higher = more bacterial growth (less inhibition). Conditions: 50 µM, Mueller-Hinton broth.

On to `CN1CCC(C(=O)NC2CCCc3nc(-c4cccnc4)ncc32)CC1` (stereo unspecified), for which the “bacterial growth OD600” value (polymyxin B 1 µg/mL) came out at 0.953.
As for `COC(=O)CCC(=O)N1CCC(CCC(=O)NCc2cccnc2)CC1`, the “bacterial growth OD600” value (polymyxin B 1 µg/mL) was 0.842.
Regarding `O=C(Cn1cccn1)N1CCCC(CCc2ccc(F)cc2F)C1` (stereo unspecified), the “bacterial growth OD600” value (polymyxin B 0.75 µg/mL) came to 0.737.
`O=C(Nc1ccnn1C1CCN(Cc2c[nH]nc2-c2ccccc2)CC1)c1ccccc1`: where the note is “polymyxin B 1 µg/mL”, the “bacterial growth OD600” value was found to be 1.07.
Turning to `CCN1CC(CN(C)c2nc3nonc3nc2NCc2cccs2)CC1=O` (stereo unspecified), for the setting “polymyxin B 0.75 µg/mL”, the “bacterial growth OD600” value was 0.809.
Regarding `O=C(NCC1CCCN(C(=O)CCC(F)(F)F)C1)c1cccc2ccccc12` (stereo unspecified), the “bacterial growth OD600” value (polymyxin B 1 µg/mL) was determined as 0.776.
For `CCOC(=O)C1(Cc2cccc(F)c2)CCN(C(=O)c2cccnc2)CC1`, the “bacterial growth OD600” value (polymyxin B 1 µg/mL) stood at 0.826.
`O=C(NCC1Cc2cc(-c3ccsc3)cc(Cl)c2O1)[C@H]1C[C@@H]2C=C[C@H]1C2` (stereo partly specified): for the setting “polymyxin B 0.75 µg/mL”, the “bacterial growth OD600” value was determined as 0.563.
As for `CC(C)Cc1nc2cc(NS(=O)(=O)N(C)C)cc(C(=O)N3CCCC(c4ccccc4)C3)c2n1C` (stereo unspecified), the “bacterial growth OD600” value (polymyxin B 0.75 µg/mL) is 0.008.
For `COc1cc(CN2CCN(Cc3cc(OC)ccc3F)CC2CCO)cc(OC)c1` (stereo unspecified), the “bacterial growth OD600” value (polymyxin B 1 µg/mL) came to 0.963.
Regarding `O=C1O[C@@H]2CN(c3ccnc(CO)c3)C[C@@H]2N1CCc1ccc(F)cc1`, under “polymyxin B 0.75 µg/mL”, the “bacterial growth OD600” value was 0.829.
As to `COc1ccccc1CN1CCC(C(Cc2ccccc2Cl)N(C)C(=O)c2ccco2)CC1` (stereo unspecified), the “bacterial growth OD600” value (polymyxin B 0.75 µg/mL) is 0.786.
On to `COC(=O)CCCNc1nncc(-c2c(OC)cccc2OC)n1`, for which the “bacterial growth OD600” value (polymyxin B 1 µg/mL) is 0.863.
On to `COc1ccc(NC2CCCN(C(=O)C3=NNC(=O)CC3)C2)cc1` (stereo unspecified), for which, under “polymyxin B 1 µg/mL”, the “bacterial growth OD600” value turned out to be 0.875.
In the case of `OC1(Cc2cc(-c3ccccc3)no2)CCN(CCCC(F)(F)F)CC1`, under “polymyxin B 1 µg/mL”, the “bacterial growth OD600” value came to 0.816.
For `CCOC(=O)C1(Cc2ccccc2C)CCCN(C2CCOCC2)C1` (stereo unspecified), the “bacterial growth OD600” value (polymyxin B 1 µg/mL) came to 0.646.
Still for that read-out and setting: then `CN1CCN(Cc2cccc(OCC(O)CN(C)C3CCCCC3)c2)CC1` (stereo unspecified), with 0.89; and `COC(=O)[C@@H](C)NC(=O)c1cc(OC)ccc1OC1CCN(C(=O)C2CC2)CC1`, with 1.13.
The same measure, in the same setting: the value for `O=C(c1cc(COc2cccc(F)c2)[nH]n1)N1CCC(N2CCSCC2)CC1` was 0.985.
`O=C(NCc1cccnc1Oc1cccc(C(F)(F)F)c1)c1cn[nH]c1`: for the setting “polymyxin B 0.75 µg/mL”, the “bacterial growth OD600” value was 0.056.
In the case of `CCc1ccc(CN(C)C(=O)c2cn(CC3COc4ccccc4O3)nn2)cc1` (stereo unspecified), for the setting “polymyxin B 1 µg/mL”, the “bacterial growth OD600” value came to 0.009.

(Values after the supplement of paper PMC12889115.)
